Source: article doi:10.1101/2023.03.29.534722
Results are given in words; binding and its absence hold for the method and conditions named. Some results given as binding are weak or reduced against the parent protein; the word gives no strength. Tags and fused reporters may be left off the sequences shown.

By UniProt entry, the sequences of proteins in these tests, tags left out.
UniProt P53224: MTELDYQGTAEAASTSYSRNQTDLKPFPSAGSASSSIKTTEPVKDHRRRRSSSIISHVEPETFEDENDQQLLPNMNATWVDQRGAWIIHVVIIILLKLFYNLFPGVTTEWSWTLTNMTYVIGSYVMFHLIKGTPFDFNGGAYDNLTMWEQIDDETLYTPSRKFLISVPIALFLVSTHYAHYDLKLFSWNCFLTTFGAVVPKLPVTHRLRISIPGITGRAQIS

T1: ALFA-Lcb2 (N-terminally ALFA-tagged Lcb2) (yeast) (UniProt P40970)
T1 sequence: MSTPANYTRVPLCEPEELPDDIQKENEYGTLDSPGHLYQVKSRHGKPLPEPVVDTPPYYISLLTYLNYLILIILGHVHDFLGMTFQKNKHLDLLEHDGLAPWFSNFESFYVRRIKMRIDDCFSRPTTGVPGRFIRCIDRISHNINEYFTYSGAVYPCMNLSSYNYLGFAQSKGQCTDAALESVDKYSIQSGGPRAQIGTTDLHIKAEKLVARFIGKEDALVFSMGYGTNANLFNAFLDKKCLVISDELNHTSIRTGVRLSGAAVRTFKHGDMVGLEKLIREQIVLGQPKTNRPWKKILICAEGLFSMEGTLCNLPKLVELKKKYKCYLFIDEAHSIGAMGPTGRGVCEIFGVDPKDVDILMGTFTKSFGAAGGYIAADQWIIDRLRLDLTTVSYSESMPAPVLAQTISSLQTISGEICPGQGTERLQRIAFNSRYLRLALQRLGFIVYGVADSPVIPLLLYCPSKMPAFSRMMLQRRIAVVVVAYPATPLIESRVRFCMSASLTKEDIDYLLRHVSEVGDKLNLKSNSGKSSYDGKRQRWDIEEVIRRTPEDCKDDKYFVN

B1: Lcb1-GFP (protein, UniProt P25045 1-558)
chain: MAHIPEVLPKSIPIPAFIVTTSSYLWYYFNLVLTQIPGGQFIVSYIKKSHHDDPYRTTVEIGLILYGIIYYLSKPQQKKSLQAQKPNLSPQEIDALIEDWEPEPLVDPSATDEQSWRVAKTPVTMEMPIQNHITITRNNLQEKYTNVFNLASNNFLQLSATEPVKEVVKTTIKNYGVGACGPAGFYGNQDVHYTLEYDLAQFFGTQGSVLYGQDFCAAPSVLPAFTKRGDVIVADDQVSLPVQNALQLSRSTVYYFNHNDMNSLECLLNELTEQEKLEKLPAIPRKFIVTEGIFHNSGDLAPLPELTKLKNKYKFRLFVDETFSIGVLGATGRGLSEHFNMDRATAIDITVGSMATALGSTGGFVLGDSVMCLHQRIGSNAYCFSACLPAYTVTSVSKVLKLMDSNNDAVQTLQKLSKSLHDSFASDDSLRSYVIVTSSPVSAVLHLQLTPAYRSRKFGYTCEQLFETMSALQKKSQTNKFIEPYEEEEKFLQSIVDHALINYNVLITRNTIVLKQETLPIVPSLKICCNAAMSPEELKNACESVKQSILACCQESNK
B2: GFP-Orm2 (protein, UniProt Q06144 1-216)
chain: MIDRTKNESPAFEESPLTPNVSNLKPFPSQSNKISTPVTDHRRRRSSSVISHVEQETFEDENDQQMLPNMNATWVDQRGAWLIHIVVIVLLRLFYSLFGSTPKWTWTLTNMTYIIGFYIMFHLVKGTPFDFNGGAYDNLTMWEQINDETLYTPTRKFLLIVPIVLFLISNQYYRNDMTLFLSNLAVTVLIGVVPKLGITHRLRISIPGITGRAQIS

What follows are molecules tested against T1, ALFA-Lcb2 (N-terminally ALFA-tagged Lcb2) (yeast) (assay: co-recruitment by nanobody re-localisation).
With GFP-Orm1 (from UniProt P53224 1-222) the binding was “binds”.
B1 was tested, and the binding was “binds”.
B2 was tested, and the binding was “binds”.
